Reference: PubChem BioAssay AID2551 (National Center for Advancing Translational Sciences (NCATS), 2010)
Out of some 310,000 compounds screened, about 17,000 (5.5%) were called active. The shares of active, inactive and inconclusive entries below differ from those in the screen. Calls follow the shape of the dose curve; as a rule, active = well fitted inhibition curve with a large enough effect; inconclusive = small, poorly fitted or top-dose-only effect, or effect the other way; inactive = no such curve, though single readings can be large or run the other way. Potencies of inconclusive entries are doubtful fits and often do not repeat.

Amino acid sequences for entries named in this document (tags omitted). A change or cut given only in a name is not applied to a line headed by its entry.
UniProt P51450: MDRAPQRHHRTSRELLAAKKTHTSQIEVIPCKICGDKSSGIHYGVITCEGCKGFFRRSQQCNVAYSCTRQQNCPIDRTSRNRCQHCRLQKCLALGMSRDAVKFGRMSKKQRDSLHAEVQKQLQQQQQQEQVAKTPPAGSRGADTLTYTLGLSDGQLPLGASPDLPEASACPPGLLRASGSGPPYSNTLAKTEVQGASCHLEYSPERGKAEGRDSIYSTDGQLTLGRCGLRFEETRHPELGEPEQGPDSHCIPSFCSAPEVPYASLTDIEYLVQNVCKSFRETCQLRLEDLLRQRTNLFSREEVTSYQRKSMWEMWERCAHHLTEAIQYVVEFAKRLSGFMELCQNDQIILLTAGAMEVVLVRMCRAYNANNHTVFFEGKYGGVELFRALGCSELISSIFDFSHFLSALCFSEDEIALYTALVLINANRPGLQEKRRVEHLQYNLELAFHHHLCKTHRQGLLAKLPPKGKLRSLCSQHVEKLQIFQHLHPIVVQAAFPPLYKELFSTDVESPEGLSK

biological target: Nuclear receptor ROR-gamma (Mus musculus) (UniProt P51450); experiment: qHTS for inhibitors of ROR gamma transcriptional activity; conditions: Drosophila S2 Gal4-RORgamma UAS-luciferase reporter, 20 h; activity change, negative = inhibition: at 53.6 µM (top of the series); also: nearly all actives have a fitted effect of over 60% in size
Procedure, shortened: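 Compounds are pin-transferred onto Drosophila Schneider cells expressing a copper-inducible Gal4–ROR gamma transactivation domain fusion. After 1 hr, copper sulfate is added to 700 uM final; luciferase is read 20 hr later.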
% is scaled to controls: 0 for no effect and ±100 for the full control effect; potency is read from the fitted curve at half-maximal effect.

SMILES | activity change, negative = inhibition | Potency
CNC(=O)c1nn(-c2ccc(Cl)cc2)ccc1=O | inactive: -13.1% | 
COc1ccc(-n2nnnc2SCC(=O)NCCc2ccc(OC)c(OC)c2)cc1 |  | inconclusive: 0.708 µM [inhibitor, single point]
S=c1[nH]nc(C2COc3ccccc3O2)o1 (configuration not stated) |  | inconclusive: 25.1 µM [inhibitor, single point]
CCOc1ccc(/C(C)=N\NC(=O)Cc2ccccc2)cc1 | inactive: -2.75% | 
COc1ccc(CCNC(=O)CSc2ccc(-c3cccs3)nn2)cc1OC | inactive: -1.73% | 
CCOC(=O)c1c(C)[nH]c(C(=O)Nc2ccc(C)c(Cl)c2)c1C | inactive: -3.73% | 
C=CCOc1ccc(C(c2c(C(=O)O)[nH]c3ccccc23)c2c(C(=O)O)[nH]c3ccccc23)cc1 | inactive: -15.6% | 
CN(C)C(=O)/C(=C\c1cccc(Oc2ccccc2)c1)NC(=O)c1ccccc1 | inactive: 14.5% | 
CN(C(=O)c1ccc(Oc2ccc([N+](=O)[O-])cc2)cc1)C1CCCCC1 |  | inconclusive: 28.2 µM [activator, single point]
CC1(C)C2CCC1(CS(=O)(=O)NCCc1c[nH]c3ccccc13)C(=O)C2 (configuration not stated) | inactive: 32.8% | 
CCC(C)C(=O)Nc1nc(C)c(-c2csc(Nc3cc(Cl)ccc3OC)n2)s1 (configuration not stated) |  | inconclusive: 5.62 µM [activator, single point]
CC(NC(=O)Nc1cccc([N+](=O)[O-])c1)c1ccc2c(c1)OCO2 (configuration not stated) |  | inconclusive: 20 µM [activator, single point]
COc1ccc(C(C)=O)cc1CSc1ccc2c(c1)OCCO2 | inactive: -10.3% | 
O=c1c2ccccc2nc2ccc(NCc3cccs3)nn12 | inactive: 15.2% | 
O=S(=O)(c1ccc(F)cc1)c1snnc1-c1ccccc1 |  | inconclusive: 7.94 µM [inhibitor, partial curve, poor fit]
CCCCNCCOCCOc1ccccc1-c1ccccc1 | inactive: -17.1% | 
Cc1cc(C(=O)Nc2c(F)cc(F)cc2Br)n(-c2ccccc2)n1 | inactive: 4.36% | 
COc1ccc(N2CCN(Cc3nc4c(c(=O)n(C)c(=O)n4C)n3CC(C)=O)CC2)cc1 |  | inconclusive: 14.1 µM [activator, single point]
CCOC(=O)c1ccc(NC(=S)N2CCSC2c2ccc(Cl)cc2)cc1 (configuration not stated) |  | active: 14.1 µM
O=C(NC1CCCC1)c1cc(COc2ccc3ncccc3c2)on1 |  | inconclusive: 35.5 µM [inhibitor, single point]
C#CCN(C(=O)c1cc(COc2cccc(C(F)(F)F)c2)on1)C1CCCCC1 |  | inconclusive: 12.6 µM [activator, partial curve]
CCC(C)c1ccc(C2C3=C(Nc4nc(N)[nH]c(=O)c42)c2ccccc2C3=O)cc1 (configuration not stated) |  | active: 12.6 µM
Cc1nn(-c2ccc(N3CCCCC3)nn2)c(C)c1CCC(=O)Nc1ccc(F)c(F)c1 | inactive: 0.797% | 
CCOC(=O)Cn1c(=O)oc2cc(S(=O)(=O)NCCc3ccc(OCC)c(OCC)c3)ccc21 | inactive: 2.22% | 
CN(C)C(CNS(=O)(=O)c1ccc(Cl)cc1)c1cccnc1 (configuration not stated) |  | inconclusive: 0.178 µM [activator, full curve, poor fit]
COC(=O)[C@@H]1[C@@H](C#N)C2(c3ccccc3-c3ccccc32)N(c2ccc(Cl)cc2)N1C#N |  | active: 15.8 µM

Exported as labelled records: 2 of the compounds above.
O=C(NC1CCCC1)c1cc(COc2ccc3ncccc3c2)on1
  Potency: inconclusive: 35.5 µM [inhibitor, single point]
C#CCN(C(=O)c1cc(COc2cccc(C(F)(F)F)c2)on1)C1CCCCC1
  Potency: inconclusive: 12.6 µM [activator, partial curve]

Further results

SMILES | activity change, negative = inhibition | Potency
CC(=O)c1sc(N/N=C\c2ccc(Br)cc2)nc1C |  | inconclusive: 35.5 µM [inhibitor, single point]
CCN1C=C(Cc2ccccc2C)C2=C(C1)C(c1ccccc1C)C(C#N)=C(N)O2 (configuration not stated) |  | inconclusive: 22.4 µM [inhibitor, single point]
CNc1sc(C(=O)c2cccs2)c(N)c1-c1nc2ccccc2s1 |  | inconclusive: 12.6 µM [inhibitor, single point]
CCOCCCNC(=S)N1CCN(c2nc(-c3ccccc3)cs2)CC1 |  | inconclusive: 2.82 µM [inhibitor, partial curve, poor fit]
Oc1ccccc1/C=N/N1CCN(c2ccccn2)CC1 | inactive: 13.1% | 
Cc1cc(OC(C)C(=O)N2C[C@H]3C[C@@H](C2)c2cccc(=O)n2C3)c2c(C)c(C)c(=O)oc2c1 (some centres not stated) |  | inconclusive: 25.1 µM [inhibitor, single point]
CCc1ccc(NC(=O)CSc2nc3cc(C(=O)OC)ccc3c(=O)n2Cc2ccco2)cc1 | inactive: 1.96% | 
C/C(=N\NC(=O)c1ccc(CN2CCc3ccccc3C2)cc1)c1ccccc1O |  | active: 0.891 µM
CCn1nnnc1NC(=O)c1cc(Cl)c(OC)c(Cl)c1 |  | inconclusive: 20 µM [inhibitor, single point]
O=C(Nc1cccc(-c2cccc(Cl)c2)c1)C1CCN(Cc2ccc(CO)o2)CC1 | inactive: -25.1% | 
O=S(=O)(NC(=S)NC1CCCCC1)c1ccccc1 |  | active: 4.47 µM
COc1cccc(NC(=O)Cc2nnc(SCC(=O)c3ccccc3)n2C)c1 |  | inconclusive: 35.5 µM [inhibitor, single point]
CCCn1nnc(NC(=S)NC(=O)/C=C/c2ccc(Cl)cc2)n1 |  | active: 5.01 µM
CNCc1cc(Cl)cc(OC)c1OC(C)C | inactive: 9.71% | 
COc1ccc(/C(C)=N/NC(=O)c2cc(-c3cccnc3)nc3ccccc23)cc1 | inactive: -10.9% | 
O=C(Nc1nnc(C(F)(F)F)s1)c1c(F)cccc1F |  | inconclusive: 17.8 µM [activator, single point]
S=c1nc(-c2cccc(Cl)c2)[nH][nH]1 |  | active: 12.6 µM
CCOC(=O)c1ccccc1NC(=S)N1CCC(C)CC1 |  | active: 12.6 µM
COCCCNc1oc(-c2ccccc2OC)nc1C#N |  | inconclusive: 35.5 µM [activator, single point]
CC(C)c1[nH]nc2c1C(c1cccs1)C(C#N)=C(N)O2 (configuration not stated) | inactive: -29.5% | 
COc1ccc(OCC(=O)Nc2cc(OC)ccc2N2CCCCC2)cc1 |  | inconclusive: 14.1 µM [activator, single point]
CC(C)c1ccc(/C=C/C(=O)Nc2nncs2)cc1 |  | active: 12.6 µM
CSc1ccc(S(=O)(=O)Nc2cccc(F)c2)cc1 |  | inconclusive: 7.94 µM [activator, partial curve]
O=C(Nc1nc2cc3c(cc2s1)OCCO3)c1cccs1 |  | inconclusive: 22.4 µM [inhibitor, single point]
CCC(=O)c1ccc(OCC(O)CN2CCN(C(c3ccccc3)c3ccccc3)CC2)cc1 (configuration not stated) | inactive: -1.56% | 
Cc1sc2ncnc(SCC(=O)NC3CC3)c2c1C | inactive: -13% | 

Look-ups from above:
activity change, negative = inhibition with `O=C(Nc1cccc(-c2cccc(Cl)c2)c1)C1CCN(Cc2ccc(CO)o2)CC1` reads inactive: -25.1%
Potency with `S=c1nc(-c2cccc(Cl)c2)[nH][nH]1` reads active: 12.6 µM

Further records

SMILES | activity change, negative = inhibition | Potency
CCOC(=O)C1(CCCc2ccccc2)CCN(C(=O)[C@@H]2C[C@@H](C)NC(=S)N2)CC1 |  | inconclusive: 35.5 µM [inhibitor, single point]
CCOc1ccc(NC(=O)CNC(=O)c2nn(-c3ccc(OC)cc3)c(=O)c3ccccc23)cc1 |  | inconclusive: 2.51 µM [activator, single point]
CCCCCCCNC(=O)CC(NS(=O)(=O)c1ccc(NC(C)=O)cc1)C(C)C (configuration not stated) |  | inconclusive: 7.08 µM [activator, partial curve]
Cc1ccc(C2=NN(C(=O)CCl)C(c3cccs3)C2)o1 (configuration not stated) |  | inconclusive: 22.4 µM [inhibitor, partial curve, poor fit]
CC(C)N1C(=O)/C(=C/c2nc3ccccc3c(=O)n2-c2ccccc2)c2ccccc21 |  | inconclusive: 8.91 µM [inhibitor, partial curve, poor fit]
COc1ccc(CNC(=O)c2ccc(CS(=O)(=O)c3ccc(Br)cc3)o2)cc1 | inactive: 29.2% | 
c1ccc(CNc2nc(NCc3ccco3)nc(N3CCOCC3)n2)cc1 |  | inconclusive: 35.5 µM [activator, single point]
[N-]=[N+]=Nc1nc2c(N)ncnc2n1C1OC(CO)C(O)C1O (configuration not stated) | inactive: -33.3% | 
CCOC(=O)N1CC=C2C(C#N)=C(N)C(C#N)(C#N)[C@H](c3cccs3)C2C1 (some centres not stated) |  | inconclusive: 31.6 µM [inhibitor, single point]
c1csc(-c2nc(NCCCN3CCOCC3)c3ccccc3n2)c1 | inactive: 11.9% | 
CCCC1=NN(C(=O)C(=O)Nc2ccc(Br)cc2)C(O)(C(F)(F)F)C1 (configuration not stated) |  | active: 0.794 µM
CCc1nc(Nc2ccc(OC)c(OC)c2)c2nnn(Cc3ccccc3Cl)c2n1 |  | inconclusive: 5.62 µM [activator, single point]
CC(C)C1Cc2c(sc(NC(=S)NC(=O)c3ccccc3)c2C#N)CO1 (configuration not stated) |  | active: 5.62 µM
O=c1c2ccccc2[nH]c2ccccc12 |  | inconclusive: 3.16 µM [activator, partial curve]
Cc1cc([N+](=O)[O-])nn1Cc1ccc(C(=O)N/N=C/c2ccc(O)cc2O)cc1 |  | inconclusive: 17.8 µM [inhibitor, single point]
CC1CCCCC12NC(=S)N(c1ccccc1)N2 (configuration not stated) |  | inconclusive: 6.31 µM [inhibitor, partial curve]
CSc1ccc(C(=S)N2CCN(Cc3ccccc3)CC2)cc1 | inactive: -17.4% | 
CSc1ccc(C2C(C#N)=C(N)Oc3c2ccc(=O)c2c(C)oc(C)c32)cc1 (configuration not stated) |  | active: 6.31 µM
COc1ccc(S(=O)(=O)Nc2cc(C)c(O)cc2C(C)C)cc1 |  | inconclusive: 2.82 µM [activator, full curve]
N#Cc1ccc(C(=O)NC23CC4CC(CC(C4)C2)C3)cc1 | inactive: 0.541% | 
Cn1c(=S)ccc2ccccc21 | inactive: -34.1% | 
O=C(NC(=S)Nc1ccc(Br)cn1)c1cccnc1 | inactive: 34.1% | 
C=CCc1cc(C=O)cc(OCC)c1OCc1ccc(Cl)cc1 |  | inconclusive: 17.8 µM [activator, single point]
C=CCO/N=C/C1C(=O)CC(C)(C)CC1=O |  | inconclusive: 11.2 µM [inhibitor, partial curve]
COc1cc2[nH]c(=S)n(CCCN3CCOCC3)c(=O)c2cc1OC |  | inconclusive: 35.5 µM [inhibitor, single point]
